The values below come from PubChem BioAssay AID2685 (National Center for Advancing Translational Sciences (NCATS), 2010).

Molecules are shown by their SMILES. The list shows a part of the results. Further columns of the screen follow, without active or inactive calls. The list favours compounds with an active or inconclusive main result. Potencies come from curve fits of mixed quality, noted in brackets.

This test in a line: qHTS Assay for Lipid Storage Modulators in Drosophila S3 Cells.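 For cell number change: cells counted by Cell Tracker Red CMTPX staining in the red channel.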 To be noted: BODIPY lipid droplet fluorescence, 18-24 h; for cell number change: measured here: cell count max response, cells fed with added oleic acid. The method in brief: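 Drosophila S3 cells loaded with oleic acid (400 uM, as added) and compounds at several concentrations; lipid droplets imaged by 488-nm laser-scanning cytometry, 500–530 nm intensity and object ratio to cell channel. Percent activity normalized to 20 uM Triacsin C.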

Setting [1] is: measured here: lipid fluorescence (Fed channel) AC50, cells fed with added oleic acid.
[2] abbreviates: measured here: cell number channel AC50, cells fed with added oleic acid.

Consider `CN(C(=O)COc1ncnc2sccc12)C1CCCCC1`, for which the cell number change worked out at 13.1%. Further, the AC50 under setting [1] is 3.66 µM [rising, partial curve, poor fit].
In the case of `CCCC(=O)NC(c1ccc(C)cc1)c1ccc2cccnc2c1O` (centres undefined), the cell number change is -59.6%. The half-maximal activity concentration (AC50) under setting [2] was 8.2 µM [falling, partial curve].
As for `COc1ccc(N(CC(=O)Nc2cc([N+](=O)[O-])ccc2C)S(C)(=O)=O)cc1OC`, the cell number change was 16.1%.
Consider `CSc1ccc(OC2CCCCC2NS(=O)(=O)c2ccccc2)cc1` (centres undefined), for which the cell number change is -11.4%. In addition, under setting [2], the AC50 was 5.8 µM [falling, single point].
Take `Cc1ccc(S(=O)(=O)Nc2cccc(C(=O)NCC(c3ccco3)N3CCCCC3)c2)cc1F` (centres undefined): the cell number change is -33.7%. Besides, the AC50 under setting [2] is 29.1 µM [falling, single point]. Moreover, the concentration at half-maximal activity (AC50) under setting [1] was 1.84 µM [falling, partial curve].
On to `Cn1c(CCC(N)=O)nnc1SCC(=O)Nc1cc(S(=O)(=O)N2CCCC2)ccc1Cl`, for which the cell number change was -71.2%. Also, the AC50 under setting [2] was 20.6 µM [falling, single point].
On to `O=C(Nc1ccc(S(=O)(=O)N2CCOCC2)cc1)C1CCN(S(=O)(=O)c2ccccc2)CC1`, for which the cell number change was -50%. Moreover, the AC50 under setting [2] was 0.411 µM [falling, full curve].
As to `OCC1(Cc2cccc(C(F)(F)F)c2)CCN(Cc2cc3ccccc3o2)CC1`, the cell number change was -44.5%. Also, under setting [2], the half-maximal activity concentration (AC50) is 29.1 µM [falling, single point]. Moreover, the AC50 under setting [1] is 29.1 µM [falling, single point].
With `C[C@H](NC(=O)[C@@H]1Cc2ccccc2CN1C(=O)OC(C)(C)C)C(=O)NC1CCCC1`, the cell number change is -17.9%. Besides, under setting [1], the AC50 was 6.51 µM [falling, single point].
`COc1cc(NC(=O)c2ccco2)c(OC)cc1NC(=O)CSc1nnc(-c2cccs2)n1C`: the cell number change is -28%. The AC50 under setting [1] is 0.92 µM [rising, partial curve].
As for `CNS(=O)(=O)Cc1ccc2[nH]cc(CCN(C)C)c2c1`, the cell number change is -12.6%. In addition, under setting [1], the AC50 was 0.58 µM [falling, full curve, poor fit].
For the molecule `CN1C(=O)c2c(sc3c2CCCC3)NC1c1ccccc1O` (centres undefined), the cell number change was found to be 145%. In addition, the half-maximal activity concentration (AC50) under setting [2] was 29.1 µM [rising, single point].
Regarding `CCOc1cc(-c2cc(-c3ccc(N)cc3)nc(N)c2C#N)ccc1O`, the cell number change was -28.1%. Also, the AC50 under setting [1] is 0.13 µM [falling, full curve, poor fit].
For `COc1ccc(C2c3[nH]c4ccccc4c3C[C@H]3C(=O)N(CCCO)CC(=O)N23)c(OC)c1` (some centres undefined), the cell number change was determined as 9.72%. Further, the AC50 under setting [1] is 29.1 µM [falling, single point].
For `CCOC(=O)NN1C(=O)c2ccccc2NC1c1cccs1` (centres undefined), the cell number change is -36.2%. Also, the AC50 under setting [2] is 29.1 µM [falling, single point]. Besides, the AC50 under setting [1] is 29.1 µM [falling, single point].
Turning to `CSCCC(NC(=O)c1ccc([N+](=O)[O-])cc1Cl)C(=O)OCC(=O)C12CC3CC(CC(C3)C1)C2` (centres undefined), the AC50 was 0.731 µM [rising, full curve] under setting [2] and 0.92 µM [rising, full curve] under setting [1].
As for `O=C(CCSc1ccc(Cl)cc1)c1ccco1`, the cell number change was -31.1%. Besides, the half-maximal activity concentration (AC50) under setting [2] was 32.6 µM [falling, single point]. Moreover, the AC50 under setting [1] was 29.1 µM [falling, single point].
For the molecule `NC(=S)N=Nc1c(O)n(CCCl)c2ccc(Br)cc12`, the AC50 under setting [1] is 4.11 µM [rising, partial curve, poor fit].
As to `COc1cccc(/C=C2\C(=O)N(c3cccc(C)c3)C(=O)c3ccccc32)c1`, the cell number change was -19%. The AC50 under setting [2] is 4.61 µM [rising, single point]. The AC50 under setting [1] is 6.51 µM [falling, partial curve].
`O=C(NCC1COc2ccccc2O1)c1ccc(Br)s1` (centres undefined): the cell number change was -35.7%. In addition, the AC50 under setting [2] was 2.59 µM [falling, full curve].
For `CCC(C)NC(=O)c1c(-c2cc(Cl)c(OC)c(Cl)c2)noc1C` (centres undefined), the cell number change turned out to be 14.7%. The AC50 under setting [1] is 8.2 µM [rising, partial curve].
Consider `COc1cc2c(cc1OC)C(C)N(C(=O)Nc1cc(C)cc(C)c1)CC2` (centres undefined), for which the cell number change is -57.2%. The AC50 under setting [2] was 7.31 µM [falling, partial curve]. Also, the AC50 under setting [1] is 6.51 µM [falling, single point].
Regarding `Cc1cccc(NS(=O)(=O)c2ccc(-c3cnc(C4CC4)o3)cc2)c1`, the cell number change was -41.8%. The AC50 under setting [2] is 29.1 µM [falling, single point].
As for `COc1cccc(NC(=O)c2cc(C(=O)Nc3cccc(OC)c3)n(C)n2)c1`, the AC50 under setting [2] was 3.26 µM [falling, partial curve] and the AC50 under setting [1] was 0.231 µM [falling, full curve].
Regarding `COC(=O)c1ccccc1NC(=O)c1cc2n(n1)C(C(F)F)CC(C(F)F)N2` (centres undefined), the cell number change is -20.1%. The half-maximal activity concentration (AC50) under setting [1] is 0.291 µM [rising, partial curve].
Take `Cc1ccccc1NC(=S)NCc1ccc(F)cc1`: the cell number change is -13.2%. In addition, the AC50 under setting [1] is 18.4 µM [falling, single point].
Consider `Cc1nc(NC(=O)CSC2=NCCS2)sc1C(=O)N(C)C`, for which the cell number change was 34.6%. Also, the AC50 under setting [2] is 20.6 µM [rising, partial curve, poor fit]. The AC50 under setting [1] was 29.1 µM [rising, single point].
Consider `Cc1ccc(OCC(=O)Nc2ccc(-c3nc4ncccc4o3)cc2)c(C)c1`, for which the cell number change was -130%. Further, the AC50 under setting [2] is 25.9 µM [falling, single point]. Also, under setting [1], the AC50 is 29.1 µM [falling, single point].
As to `O=C(C1CCN(C2CC(=O)N(c3ccc(F)cc3)C2=O)CC1)N1CCOCC1` (centres undefined), the cell number change is -1.17%.
Turning to `COc1cccc(N(C(=O)c2snc(C(N)=O)c2N)C(C(=O)NCC2CCCO2)c2c[nH]c3ccccc23)c1` (centres undefined), the cell number change was -22.2%. For the same molecule, under setting [1], the AC50 was 6.51 µM [falling, single point].
On to `CCOCCCNC(=O)c1ccc2c(c1)ncn2-c1cccc(C)c1`, for which the cell number change was found to be 36.2%. Also, under setting [2], the AC50 was 4.61 µM [rising, partial curve]. Also, the AC50 under setting [1] was 23.1 µM [rising, single point].
As to `COc1cccc2cc(S(=O)(=O)c3ccc(C)cc3)/c(=N/NS(=O)(=O)c3ccc(C)cc3)oc12`, the AC50 under setting [2] is 0.082 µM [rising, full curve, poor fit] and the AC50 under setting [1] was 0.146 µM [rising, full curve, poor fit].
Turning to `COc1ccc(NS(=O)(=O)c2ccc3c(c2)CCC(=O)N3)c(OC)c1`, the cell number change was determined as 3.49%. For the same molecule, the AC50 under setting [1] was 29.1 µM [rising, single point].
On to `CCC(=O)Nc1ccc2c(c1)nc1n2CCSC1`, for which the cell number change was -49.4%. Further, the half-maximal activity concentration (AC50) under setting [2] is 18.4 µM [falling, partial curve]. In addition, the AC50 under setting [1] was 18.4 µM [rising, single point].
Regarding `O=C(COc1ccccc1)Nc1ccc(-c2ccc(N3CCOCC3)nn2)cc1`, the cell number change was found to be 2.51%. Under setting [1], the AC50 was 1.84 µM [rising, partial curve].
Take `O=C(COc1ccc2ccccc2c1)N1CCN(C(=O)c2ccc([N+](=O)[O-])cc2)CC1`: the cell number change was 53.1%. Moreover, under setting [2], the AC50 is 29.1 µM [rising, single point]. For the same molecule, the AC50 under setting [1] was 29.1 µM [rising, partial curve, poor fit].
In the case of `Cc1cccc(C)c1NC(=O)CNC(=O)c1ccc(N2CCCC2=O)cc1`, the cell number change is -11.9%. For the same molecule, the AC50 under setting [1] is 6.51 µM [falling, single point].
Consider `CCCc1c(C)nc2ccccc2c1SCCC#N`, for which the cell number change is -9.81%. Besides, the AC50 under setting [2] is 5.8 µM [rising, single point].
Turning to `O=C(CSc1nnnn1C1CCCC1)N1CCCc2ccccc21`, the cell number change was determined as 27.7%. In addition, the AC50 under setting [1] is 1.16 µM [rising, full curve].
Take `O=C(Nc1ccc(-c2nnc(-c3ccccc3)o2)cc1)C1CCCO1` (centres undefined): the cell number change turned out to be 33.9%. The AC50 under setting [2] is 23.1 µM [rising, single point]. The AC50 under setting [1] was 0.116 µM [rising, full curve, poor fit].
With `c1csc(-c2nnc(N3CCOCC3)c3ccccc23)c1`, the cell number change is -3.35%.
Take `O=C(Cn1c(C(=O)O)cc2ccccc21)c1ccccc1`: the cell number change turned out to be 5.11%. In addition, under setting [1], the AC50 was 3.66 µM [rising, full curve].
In the case of `COCCn1c(SC(C)C(=O)NC2CCCCC2C)nc2ccccc2c1=O` (centres undefined), the cell number change was -13.3%.
With `COc1cccc(-c2nn(-c3ccccc3)cc2CO)c1`, the cell number change was -14.4%. Besides, under setting [1], the AC50 was 1.03 µM [rising, full curve].
As for `NC(=O)N/N=C/c1cccc(C(F)(F)F)c1`, the cell number change came to 4.48%. In addition, the AC50 under setting [1] was 0.82 µM [falling, single point].
As for `c1ccc(OCc2nn3c(-c4ccccn4)nnc3s2)cc1`, the cell number change worked out at 12.5%. Moreover, under setting [2], the AC50 was 0.00461 µM [rising, full curve, poor fit]. In addition, under setting [1], the half-maximal activity concentration (AC50) was 32.6 µM [rising, single point].
Regarding `Cc1cccc(-n2c(-c3ccco3)n[nH]c2=S)c1`, the cell number change was 22.7%. Also, under setting [1], the AC50 is 0.731 µM [falling, full curve].
In the case of `O=C(O)CSCC(=O)NCc1ccc(Cl)cc1Cl`, the cell number change amounted to 7.01%. Also, the AC50 under setting [1] was 6.51 µM [falling, single point].
As to `CCOC(=O)c1ccc(NC(=S)N2CCC(C(N)=O)(N3CCCCC3)CC2)cc1`, the cell number change is 17.5%. Further, the AC50 under setting [1] was 20.6 µM [falling, single point].
`CN(c1ccccc1)S(=O)(=O)c1cccc(NS(=O)(=O)c2ccc(/C=C/C(=O)O)cc2)c1`: the cell number change was 55.3%. In addition, the AC50 under setting [2] is 29.1 µM [rising, partial curve, poor fit].
With `CC(=O)Nc1cccc(NC(C)=O)n1`, under setting [1], the AC50 was 1.46 µM [falling, partial curve].
Consider `COc1cc(OC)cc(C(=O)N2CCN(c3ccc(N4CCOCC4)nn3)CC2)c1`, for which the cell number change was -23.2%.
As for `CC(=O)Nc1ccc(S(=O)(=O)N(C)CC(=O)N/N=C/c2ccc(C(=O)O)cc2)cc1`, the cell number change was determined as 3.23%. Further, under setting [1], the AC50 is 3.66 µM [rising, full curve].
Consider `Cc1ccc(NS(=O)(=O)c2c(C)[nH]c(=O)[nH]c2=O)cc1C`, for which the cell number change was -48.8%. For the same molecule, under setting [2], the half-maximal activity concentration (AC50) was 0.58 µM [falling, full curve]. For the same molecule, the AC50 under setting [1] was 2.31 µM [falling, full curve].
Regarding `CCOC(=O)c1c(NC(=O)COc2ccccc2F)sc2c1CC(C)(C)NC2(C)C`, the cell number change was 18.6%. Also, under setting [1], the concentration at half-maximal activity (AC50) was 0.00461 µM [falling, full curve, poor fit].
In the case of `COc1cccc(CNC(=O)CCCC(=O)NC(C)CCc2ccccc2)c1` (centres undefined), the cell number change amounted to 0.872%. Under setting [1], the AC50 was 16.4 µM [falling, single point].
